The text below walks through data of publication PMC4024641.

Results are given in words; binding and its absence hold for the method and conditions named. In cells and extracts the contact can be indirect. Some entries that bind do so weakly or less than the wild type. Tags and fused reporters may be left off the sequences shown.

In test [1] the target is T1, Rrp6-13×myc (S. pombe) (UniProt Q10146).
T1 sequence: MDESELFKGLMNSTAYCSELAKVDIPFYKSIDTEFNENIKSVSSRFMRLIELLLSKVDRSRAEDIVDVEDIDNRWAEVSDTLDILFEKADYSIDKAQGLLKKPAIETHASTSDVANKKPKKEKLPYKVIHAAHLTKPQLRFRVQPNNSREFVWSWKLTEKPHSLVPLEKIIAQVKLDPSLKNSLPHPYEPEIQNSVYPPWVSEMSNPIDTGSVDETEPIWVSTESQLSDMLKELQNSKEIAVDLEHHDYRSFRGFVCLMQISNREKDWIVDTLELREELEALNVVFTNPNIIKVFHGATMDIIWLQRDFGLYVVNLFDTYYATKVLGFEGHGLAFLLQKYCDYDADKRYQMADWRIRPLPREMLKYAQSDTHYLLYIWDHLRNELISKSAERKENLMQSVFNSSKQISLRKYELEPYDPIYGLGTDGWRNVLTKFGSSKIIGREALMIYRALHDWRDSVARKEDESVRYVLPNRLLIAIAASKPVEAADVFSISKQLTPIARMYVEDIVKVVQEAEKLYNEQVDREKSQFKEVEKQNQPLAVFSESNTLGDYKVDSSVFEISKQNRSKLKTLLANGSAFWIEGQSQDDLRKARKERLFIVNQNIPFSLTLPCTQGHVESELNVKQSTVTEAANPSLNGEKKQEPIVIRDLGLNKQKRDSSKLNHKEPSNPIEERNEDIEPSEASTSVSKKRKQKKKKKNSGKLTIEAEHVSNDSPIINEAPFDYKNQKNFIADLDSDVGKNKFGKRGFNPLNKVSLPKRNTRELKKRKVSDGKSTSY
The experiment in a line: co-IP; α-myc (9E10) on Protein G Dynabeads from S. pombe cell lysate, 4°C 2–3 h, lysis buffer; blot with α-FLAG-HRP; without RNase A.

In test [2] the target is T1, Rrp6-13×myc (S. pombe). Put plainly: co-IP; α-myc (9E10) on Protein G Dynabeads from S. pombe cell lysate, 4°C 2–3 h; RNase A 100 μg/mL present during binding and washing; blot with α-FLAG-HRP.
Test [3] has as its target T2, Red5-13×myc (S. pombe), O74823.
T2 chain: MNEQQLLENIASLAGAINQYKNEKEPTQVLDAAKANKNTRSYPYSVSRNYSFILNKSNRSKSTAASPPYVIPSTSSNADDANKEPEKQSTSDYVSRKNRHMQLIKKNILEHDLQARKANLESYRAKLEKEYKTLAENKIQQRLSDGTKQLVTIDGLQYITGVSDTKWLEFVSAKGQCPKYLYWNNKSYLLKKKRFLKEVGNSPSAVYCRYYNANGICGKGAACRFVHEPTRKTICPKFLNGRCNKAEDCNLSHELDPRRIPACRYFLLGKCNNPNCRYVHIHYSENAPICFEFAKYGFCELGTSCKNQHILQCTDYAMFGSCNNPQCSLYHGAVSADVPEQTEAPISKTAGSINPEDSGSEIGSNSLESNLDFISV
Put plainly: co-IP; α-myc (9E10) on Protein G Dynabeads from S. pombe cell lysate, 4°C 2–3 h, lysis buffer; blot with α-FLAG-HRP; without RNase A. The settings on record: remark: other sources report otherwise.

Test [4] deals with T3, Rmn1-13×myc (S. pombe) (UniProt Q9USP9).
T3 sequence: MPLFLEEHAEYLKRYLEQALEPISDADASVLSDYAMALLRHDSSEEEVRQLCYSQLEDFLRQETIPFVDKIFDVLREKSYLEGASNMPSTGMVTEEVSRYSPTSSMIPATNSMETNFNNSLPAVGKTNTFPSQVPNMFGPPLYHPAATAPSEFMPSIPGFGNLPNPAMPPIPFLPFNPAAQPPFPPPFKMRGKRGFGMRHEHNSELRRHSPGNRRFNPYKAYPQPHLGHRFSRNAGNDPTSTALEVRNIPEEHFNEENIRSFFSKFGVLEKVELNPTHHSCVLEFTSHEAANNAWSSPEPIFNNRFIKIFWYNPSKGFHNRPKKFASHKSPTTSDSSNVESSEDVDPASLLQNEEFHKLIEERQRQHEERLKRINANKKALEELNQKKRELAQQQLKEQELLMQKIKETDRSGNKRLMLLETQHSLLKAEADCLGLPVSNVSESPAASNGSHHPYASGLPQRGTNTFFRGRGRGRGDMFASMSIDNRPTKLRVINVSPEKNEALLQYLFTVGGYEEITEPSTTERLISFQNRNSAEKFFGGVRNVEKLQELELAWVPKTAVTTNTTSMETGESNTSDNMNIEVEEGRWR
Described as above.

In test [5] the target is T4, Ars2-13×myc (S. pombe) (UniProt O94326).
T4 sequence: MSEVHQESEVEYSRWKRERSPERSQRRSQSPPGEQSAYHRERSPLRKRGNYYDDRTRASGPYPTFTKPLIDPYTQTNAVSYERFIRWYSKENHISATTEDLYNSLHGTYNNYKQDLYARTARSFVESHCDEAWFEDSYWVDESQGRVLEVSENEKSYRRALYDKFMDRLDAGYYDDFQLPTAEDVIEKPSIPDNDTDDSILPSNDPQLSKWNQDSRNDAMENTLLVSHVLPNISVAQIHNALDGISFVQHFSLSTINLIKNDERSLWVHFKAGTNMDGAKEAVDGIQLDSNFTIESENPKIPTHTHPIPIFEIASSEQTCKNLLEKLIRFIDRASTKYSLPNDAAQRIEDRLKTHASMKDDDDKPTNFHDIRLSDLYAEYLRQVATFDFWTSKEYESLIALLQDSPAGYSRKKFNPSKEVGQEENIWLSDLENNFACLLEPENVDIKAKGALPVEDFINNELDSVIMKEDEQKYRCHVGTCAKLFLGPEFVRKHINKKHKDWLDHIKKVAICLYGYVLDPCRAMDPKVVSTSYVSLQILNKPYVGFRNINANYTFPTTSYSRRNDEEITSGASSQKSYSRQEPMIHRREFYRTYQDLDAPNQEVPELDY
The description is as above.

Test [6] has as its target T3, Rmn1-13×myc (S. pombe). The experiment in a line: co-IP; α-myc (9E10) on Protein G Dynabeads from S. pombe cell lysate, 4°C 2–3 h; RNase A 100 μg/mL present during binding and washing; blot with α-FLAG-HRP.
In test [7] the target is T4, Ars2-13×myc (S. pombe). The description is as above.

B1: Mtl1-3×FLAG (protein, UniProt O13799 1-1030)
chain: MSENSTDSKNFQFSEGSRESSNDELKVLLRDTETKEDEKSSFSNSEEESIIENLSDSSVNKEYAKNSLKLSDAVSESKYLNPLLKDKRHDRSFALHKVVVPDDYDYIPLNKHIPSDPPAKTYPFELDPFQSTAIKCVERMESVLVSAHTSAGKTVIAEYAIAQALKNRQRVIYTSPIKSLSNQKYRELLSEFGDVGLMTGDVSINPSASCLIMTTEILRAMLYKNSEIMHEIAWVIFDEVHYMRDKDRGVVWEETLILLPDAIRFIFLSATLPNALQFARWISEIHKQPCHVVYTDYRPTPLQHFIYPQGADGIYMLVDEKNKFKTENFKKVLEVLDHSTRQENYSKSSKKVKKSSSLERIINMVLSNRYDPIIVFCFSKKECEINAHQFGKLDLNDTENKELVTEIFDSAINQLSEEDRGLRQFEEMRSLLLRGIGIHHSGLLPILKELVEILFQEGLVRILFATETFSIGLNMPARTVLFTKAQKFSGNNFRWLTSGEYMQMSGRAGRRGIDTKGLSIVILDQSIDEQAARCLMNGQADVLNSAFHLSYGMILNLMRIEEISPEDILKKSFYQFQNMESLPLIKEELMQLKNEETSINIPNETAVKEFHDLKLQLEKYGEEIQKVMTHPDNCLPYLQSGRLIQIKLGGIIFPWGVLVNVIKREFDPNTREQVAPHETYVLDVLLPISSNSMSNHKVNPSILVPPRPNETPLYEIVSVLLTAVCNISSIRIYMPRELNSNESKLRAYRRVNEVIEEFKEIPYLDPLEHMHIESSTLSLSLRKLEILEPKLFDSPYYKDSKHRAEYHEFRKKLNLRAQIKDISTKITNTEAIIQLRELKIRQRVLRRLGFCTLENVIDIKGRVACEITSGDELLLVELIFQGFFNQMPPEEIAAALSCFVYEDKSEVSTLNLKEPFKKMYLTIIEAAKRIATVSLESKLQFNESDYLHQFKPDIMEPVSLWINGASFQEICIVSKLYEGSIVRTFRRLDELLKQLEHAAIVLGNNELKEKSVLTEQKLHRDIIFSASLYL
As to B1, the binding entry with Rrp6-13×myc (S. pombe) [1] and with Rrp6-13×myc (S. pombe) [2] was “binds” throughout.

B2: Red1-3×FLAG, Q9UTR8 1-712 (protein)
chain: MSRSINLDELRKKALESKKKNEEDESNDSDKEDGEISEDDPVIDQSNSVPPMKVPTFPEQIPQLPPFDRFPGTNANFFPFGAPFMLPPALMFGPNTVPFFPQTASSNKTFSKRKRSSENSFNNRNKAKSSETSDSSNTSQSFKENRALKDTATSRPLALSSDTSYQKSEKAKSEKSPFLSTSKNSDANYSKTTNQKEAEKAVSQLFEVGVRFNDFIAEGIEPSVVHTLFLKLGLDSSSASSQGSLTLSADKAARSAKLRKIDSNLSDTHILPGDNGTPTVLPERKNLISLPLLKQDDWLSSSKPFGSSTPNVVIEFDSDDDGDDFSNSKIEQSNLEKPPSNSENGLTMSRSDYLALLRNKEEEIRRMTKLILRLESNKKPYRSPTSAADMKLPSVPVAAVDNKSKTHLDTFEKVVDLSSKADFVEAGPSISSSGASSSAATTNSDTTEQILEAPWLRKTEQIAVVHEEHPAQIKKSEIDILNNLIEKEEGELTKYQTLVKSKTEILTQLYTRKKQLLEQQGKGNVACLPKESDLSMDSITEVSAQADENSSQILSSKTSNAPNGTTETDFEDKVPLVDYISPFYRFKSYRFNQQFVERVPLKYRSLTYSNKIEPMKVFCKYETTGGVCNDDHCEASHFRDIKMTDDEIIQDLSRYIEGNDEIEKESYKSGLDIVMKNTDENTDFVDVATRIVEYHNLWKSERMTIPVAKVSI
B2: the binding entry in test [3] is “binds”.

B3: Red1-3×FLAG (protein, UniProt Q9UTR8 1-712)
chain: MSRSINLDELRKKALESKKKNEEDESNDSDKEDGEISEDDPVIDQSNSVPPMKVPTFPEQIPQLPPFDRFPGTNANFFPFGAPFMLPPALMFGPNTVPFFPQTASSNKTFSKRKRSSENSFNNRNKAKSSETSDSSNTSQSFKENRALKDTATSRPLALSSDTSYQKSEKAKSEKSPFLSTSKNSDANYSKTTNQKEAEKAVSQLFEVGVRFNDFIAEGIEPSVVHTLFLKLGLDSSSASSQGSLTLSADKAARSAKLRKIDSNLSDTHILPGDNGTPTVLPERKNLISLPLLKQDDWLSSSKPFGSSTPNVVIEFDSDDDGDDFSNSKIEQSNLEKPPSNSENGLTMSRSDYLALLRNKEEEIRRMTKLILRLESNKKPYRSPTSAADMKLPSVPVAAVDNKSKTHLDTFEKVVDLSSKADFVEAGPSISSSGASSSAATTNSDTTEQILEAPWLRKTEQIAVVHEEHPAQIKKSEIDILNNLIEKEEGELTKYQTLVKSKTEILTQLYTRKKQLLEQQGKGNVACLPKESDLSMDSITEVSAQADENSSQILSSKTSNAPNGTTETDFEDKVPLVDYISPFYRFKSYRFNQQFVERVPLKYRSLTYSNKIEPMKVFCKYETTGGVCNDDHCEASHFRDIKMTDDEIIQDLSRYIEGNDEIEKESYKSGLDIVMKNTDENTDFVDVATRIVEYHNLWKSERMTIPVAKVSI
B3: the binding entry with Rmn1-13×myc (S. pombe) [4], in the test with Ars2-13×myc (S. pombe) [5], with Rmn1-13×myc (S. pombe) [6] and in the test with Ars2-13×myc (S. pombe) [7] was “binds” throughout.
